Taken from: PubChem BioAssay AID652272 (Drosophila RNAi Screening Center, 2013)

- Purpose: 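Genome-wide knock-down search for components of Hedgehog signalling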 (primary screen)
- Cells: Drosophila clone 8 (Cl8) cells
- Knock-down reagent: long dsRNA against Drosophila genes
- Measurement: 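Plate reader light from a firefly reporter under a ptc promoter fragment that responds to Hedgehog, with Renilla light as transfection reference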
- Scale: firefly Hh reporter signal: higher = more ptc reporter light; Renilla reference signal: higher = more Renilla control light
- Rule for the call: 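Hit when the z-score averaged over two replicates is under -2 or over +3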
- Meaning of the calls: active = hit: reporter lowered or raised; inactive = not a hit
The deposit covers about 21,000 reagents; below is a random part of those with a known target gene and a result. In the full data, 503 (2.4%) are marked active. 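Raw plate light values, not normalised; calls rest on replicate z-scores that were not deposited; hits include reporter decreases as well as increases.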 A plus sign joins genes that one reagent is predicted to hit. The record does not give: the amount of reagent, the time to read-out.

After knock-down of Him, the screen gave firefly Hh reporter signal, replicate 1 = 55812; firefly Hh reporter signal, replicate 2 = 1.75e5; Renilla reference signal, replicate 1 = 2124; Renilla reference signal, replicate 2 = 7347; inactive.
Against Polr2H, the values are firefly Hh reporter signal, replicate 1 = 92096; firefly Hh reporter signal, replicate 2 = 90122; Renilla reference signal, replicate 1 = 3364; Renilla reference signal, replicate 2 = 2919; inactive.
PpV showed firefly Hh reporter signal, replicate 1 = 57410; firefly Hh reporter signal, replicate 2 = 2.10e5; Renilla reference signal, replicate 1 = 1293; Renilla reference signal, replicate 2 = 7386; inactive.
CG14423 gave firefly Hh reporter signal, replicate 1 = 1.04e5; firefly Hh reporter signal, replicate 2 = 2.54e5; Renilla reference signal, replicate 1 = 3506; Renilla reference signal, replicate 2 = 8704; inactive.
Depletion of CG1889 resulted in: firefly Hh reporter signal, replicate 1 = 1.31e5; firefly Hh reporter signal, replicate 2 = 1.15e5; Renilla reference signal, replicate 1 = 2992; Renilla reference signal, replicate 2 = 2807; inactive.
GIIIspla2 showed firefly Hh reporter signal, replicate 1 = 1.07e5; firefly Hh reporter signal, replicate 2 = 74505; Renilla reference signal, replicate 1 = 2428; Renilla reference signal, replicate 2 = 1912; inactive.
Knock-down of CG31515 resulted in: firefly Hh reporter signal, replicate 1 = 37696; firefly Hh reporter signal, replicate 2 = 1.89e5; Renilla reference signal, replicate 1 = 9835; Renilla reference signal, replicate 2 = 4272; inactive.
Est-Q gave firefly Hh reporter signal, replicate 1 = 84091; firefly Hh reporter signal, replicate 2 = 1.05e5; Renilla reference signal, replicate 1 = 3129; Renilla reference signal, replicate 2 = 3524; inactive.
CG13983 gave firefly Hh reporter signal, replicate 1 = 1.04e5; firefly Hh reporter signal, replicate 2 = 39607; Renilla reference signal, replicate 1 = 2905; Renilla reference signal, replicate 2 = 4157; inactive.
Silencing of CG31643 resulted in: firefly Hh reporter signal, replicate 1 = 5.09e5; firefly Hh reporter signal, replicate 2 = 1.62e5; Renilla reference signal, replicate 1 = 26475; Renilla reference signal, replicate 2 = 7122; inactive.

Targets listed so far whose gene name starts with P or p (2):
Polr2H → firefly Hh reporter signal, replicate 1 = 92096; firefly Hh reporter signal, replicate 2 = 90122; Renilla reference signal, replicate 1 = 3364; Renilla reference signal, replicate 2 = 2919; activity call = inactive
PpV → firefly Hh reporter signal, replicate 1 = 57410; firefly Hh reporter signal, replicate 2 = 2.10e5; Renilla reference signal, replicate 1 = 1293; Renilla reference signal, replicate 2 = 7386; activity call = inactive

Additional records follow.
Against msb1l, the values are firefly Hh reporter signal, replicate 1 = 78822; firefly Hh reporter signal, replicate 2 = 74512; Renilla reference signal, replicate 1 = 3450; Renilla reference signal, replicate 2 = 3016; inactive.
For Rgl, the values are firefly Hh reporter signal, replicate 1 = 58443; firefly Hh reporter signal, replicate 2 = 54325; firefly Hh reporter signal, replicate 3 = 31239; Renilla reference signal, replicate 1 = 4540; Renilla reference signal, replicate 2 = 1345; inactive.
After knock-down of CG43181, the record shows firefly Hh reporter signal, replicate 1 = 3.92e5; firefly Hh reporter signal, replicate 2 = 1.33e5; Renilla reference signal, replicate 1 = 20237; Renilla reference signal, replicate 2 = 2710; inactive.
For Ir94c the deposit lists firefly Hh reporter signal, replicate 1 = 54010; firefly Hh reporter signal, replicate 2 = 2.34e5; Renilla reference signal, replicate 1 = 11403; Renilla reference signal, replicate 2 = 5765; inactive.
With knock-down of CG12081, the record shows firefly Hh reporter signal, replicate 1 = 84653; firefly Hh reporter signal, replicate 2 = 76021; Renilla reference signal, replicate 1 = 1997; Renilla reference signal, replicate 2 = 1968; inactive.
Knock-down of CG5693 gave: firefly Hh reporter signal, replicate 1 = 1.15e5; firefly Hh reporter signal, replicate 2 = 50169; Renilla reference signal, replicate 1 = 2432; Renilla reference signal, replicate 2 = 4116; inactive.
Depletion of PH4alphaMP came out at: firefly Hh reporter signal, replicate 1 = 74392; firefly Hh reporter signal, replicate 2 = 83194; Renilla reference signal, replicate 1 = 2856; Renilla reference signal, replicate 2 = 2135; inactive.
Silencing of CG32271 resulted in: firefly Hh reporter signal, replicate 1 = 95588; firefly Hh reporter signal, replicate 2 = 28155; Renilla reference signal, replicate 1 = 3553; Renilla reference signal, replicate 2 = 199; inactive.
CG17508 gave firefly Hh reporter signal, replicate 1 = 61200; firefly Hh reporter signal, replicate 2 = 52992; Renilla reference signal, replicate 1 = 2048; Renilla reference signal, replicate 2 = 3945; inactive.
Knock-down of CG5800 resulted in: firefly Hh reporter signal, replicate 1 = 72794; firefly Hh reporter signal, replicate 2 = 2.15e5; Renilla reference signal, replicate 1 = 1744; Renilla reference signal, replicate 2 = 9880; inactive.
Knock-down of CG2006 + Spase12 resulted in: firefly Hh reporter signal, replicate 1 = 96173; firefly Hh reporter signal, replicate 2 = 1.14e5; Renilla reference signal, replicate 1 = 3442; Renilla reference signal, replicate 2 = 2769; inactive.
